From article PMC11570840 come the findings set out here.

The chains behind the UniProt entries cited, without tags or fusion partners.
UniProt P08588: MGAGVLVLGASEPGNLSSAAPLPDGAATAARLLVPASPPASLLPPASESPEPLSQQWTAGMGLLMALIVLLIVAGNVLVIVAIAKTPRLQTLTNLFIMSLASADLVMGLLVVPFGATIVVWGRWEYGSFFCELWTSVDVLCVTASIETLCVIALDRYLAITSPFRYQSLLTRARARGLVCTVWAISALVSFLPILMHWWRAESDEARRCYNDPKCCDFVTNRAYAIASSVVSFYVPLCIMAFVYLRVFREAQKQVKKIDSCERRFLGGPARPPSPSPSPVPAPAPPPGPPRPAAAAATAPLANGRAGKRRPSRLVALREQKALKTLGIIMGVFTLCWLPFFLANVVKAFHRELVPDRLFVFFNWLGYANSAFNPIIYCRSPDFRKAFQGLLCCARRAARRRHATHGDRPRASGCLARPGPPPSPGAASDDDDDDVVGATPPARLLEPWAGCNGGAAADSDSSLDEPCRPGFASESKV
UniProt P50148: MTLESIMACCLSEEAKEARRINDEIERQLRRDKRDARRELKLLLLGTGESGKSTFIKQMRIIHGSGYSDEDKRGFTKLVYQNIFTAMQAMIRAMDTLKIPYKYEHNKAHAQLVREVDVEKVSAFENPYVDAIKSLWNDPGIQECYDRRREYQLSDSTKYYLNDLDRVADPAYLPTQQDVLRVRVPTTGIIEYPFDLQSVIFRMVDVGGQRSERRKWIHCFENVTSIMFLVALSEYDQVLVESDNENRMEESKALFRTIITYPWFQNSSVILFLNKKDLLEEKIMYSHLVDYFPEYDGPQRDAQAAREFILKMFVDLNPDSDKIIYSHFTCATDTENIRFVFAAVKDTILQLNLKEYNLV

Results are given in words; binding and its absence hold for the method and conditions named. Binding seen in cells or lysates may run through a third protein. Some binding calls cover weakened binding; strength is not graded here.

Assay [1] addresses β1-adrenergic receptor fused to RlucII (β1AR-RlucII) (UniProt P08588). In words: FRET or BRET; live HEK293 cells co-transfected with donor β2AR-RlucII or β1AR-RlucII and acceptor Gαq-Venus; stimulated 20 min with increasing concentrations of ISO; data as % of maximal ISO-induced Gαq recruitment to the β2AR. A general note: BRET reads energy transfer from a luciferase to a nearby fluorophore.

In assay [2] the target is β2-adrenergic receptor C terminally fused with RlucII (β2AR-RlucII) (UniProt P07550). Described as above.

Consider “holo-Gαq subunit fused to Venus (Gαq-Venus) (from UniProt P50148 1-359)”, for which the binding entry is given as “no binding” in assay [1] and “binds” in assay [2].
